Assay results from the supplement of paper PMC8728848.
This is one part of the list.

How the values were obtained:
Assay in all cases: glycan array binding signal (z-score within array); higher = stronger binding
Details in all cases: glycan notation: IUPAC condensed, linker removed
Kdn(a2-3)Gal(b1-4)GlcNAc = target: Kdn(a2-3)Gal(b1-4)GlcNAc
In short: (§1)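 From the Consortium for Functional Glycomics database, 3228 arrays were curated, keeping only those whose protein sequence was available. Binding is given as a within-array Z-score averaged across arrays sharing a protein sequence and across linkers. Negative Z-scores can be read as non-binding.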

[1] = target: Kdn(a2-3)Gal(b1-4)[Fuc(a1-3)]GlcNAc
In short: as §1

Kdn(a2-6)Gal(b1-4)GlcNAc = target: Kdn(a2-6)Gal(b1-4)GlcNAc
In short: as §1

[2] = target: Man(a1-2)Man(a1-2)Man(a1-3)Man
In short: as §1

[3] = target: Man(a1-2)Man(a1-2)Man(a1-6)[Man(a1-3)]Man
In short: as §1

Man(a1-2)Man(a1-3)Man = target: Man(a1-2)Man(a1-3)Man
In short: as §1

[4] = target: Man(a1-2)Man(a1-3)[Man(a1-2)Man(a1-6)]Man
In short: as §1

[5] = target: Man(a1-2)Man(a1-3)[Man(a1-2)Man(a1-6)]Man(a1-6)[Man(a1-2)Man(a1-2)Man(a1-3)]Man
In short: as §1

[6] = target: Man(a1-2)Man(a1-3)[Man(a1-2)Man(a1-6)]Man(a1-6)[Man(a1-2)Man(a1-2)Man(a1-3)]Man(b1-4)GlcNAc(b1-4)GlcNAc
In short: as §1

[7] = target: Man(a1-2)Man(a1-3)[Man(a1-6)]Man(a1-6)[Man(a1-2)Man(a1-3)]Man(b1-4)GlcNAc(b1-4)GlcNAc
In short: as §1

[8] = target: Man(a1-2)Man(a1-6)[Man(a1-3)]Man(a1-6)[Man(a1-2)Man(a1-2)Man(a1-3)]Man
In short: as §1

[9] = target: Man(a1-2)Man(a1-6)[Man(a1-3)]Man(a1-6)[Man(a1-2)Man(a1-2)Man(a1-3)]Man(b1-4)GlcNAc(b1-4)GlcNAc
In short: as §1

Man(a1-3)[Man(a1-6)]Man = target: Man(a1-3)[Man(a1-6)]Man
In short: as §1

[10] = target: Man(a1-3)[Man(a1-6)]Man(a1-6)[Man(a1-2)Man(a1-3)]Man(b1-4)GlcNAc(b1-4)GlcNAc
In short: as §1

[11] = target: Man(a1-3)[Man(a1-6)]Man(a1-6)[Man(a1-3)]Man
In short: as §1

[12] = target: Man(a1-3)[Man(a1-6)]Man(a1-6)[Man(a1-3)]Man(b1-4)GlcNAc(b1-4)GlcNAc
In short: as §1

[13] = target: Man(a1-3)[Man(a1-6)]Man(b1-4)GlcNAc(b1-4)GlcNAc
In short: as §1

[14] = target: Man(a1-3)[Man(a1-6)]Man(b1-4)GlcNAc(b1-4)[Fuc(a1-6)]GlcNAc
In short: as §1

Man(a1-6)Man = target: Man(a1-6)Man
In short: as §1

Man(b1-4)GlcNAc = target: Man(b1-4)GlcNAc
In short: as §1

Neu5Ac(a2-3)Gal = target: Neu5Ac(a2-3)Gal
In short: as §1

[15] = target: Neu5Ac(a2-3)Gal(b1-3)GalNAc
In short: as §1

[16] = target: Neu5Ac(a2-3)Gal(b1-3)GalNAc(b1-3)Gal(a1-4)Gal(b1-4)Glc
In short: as §1

B1: Latrophilin-3 (Homo sapiens), Q9HAR2 (protein)
chain: MWPSQLLIFMMLLAPIIHAFSRAPIPMAVVRRELSCESYPIELRCPGTDVIMIESANYGRTDDKICDSDPAQMENIRCYLPDAYKIMSQRCNNRTQCAVVAGPDVFPDPCPGTYKYLEVQYECVPYKVEQKVFLCPGLLKGVYQSEHLFESDHQSGAWCKDPLQASDKIYYMPWTPYRTDTLTEYSSKDDFIAGRPTTTYKLPHRVDGTGFVVYDGALFFNKERTRNIVKFDLRTRIKSGEAIIANANYHDTSPYRWGGKSDIDLAVDENGLWVIYATEQNNGKIVISQLNPYTLRIEGTWDTAYDKRSASNAFMICGILYVVKSVYEDDDNEATGNKIDYIYNTDQSKDSLVDVPFPNSYQYIAAVDYNPRDNLLYVWNNYHVVKYSLDFGPLDSRSGQAHHGQVSYISPPIHLDSELERPSVKDISTTGPLGMGSTTTSTTLRTTTLSPGRSTTPSVSGRRNRSTSTPSPAVEVLDDMTTHLPSASSQIPALEESCEAVEAREIMWFKTRQGQIAKQPCPAGTIGVSTYLCLAPDGIWDPQGPDLSNCSSPWVNHITQKLKSGETAANIARELAEQTRNHLNAGDITYSVRAMDQLVGLLDVQLRNLTPGGKDSAARSLNKAMVETVNNLLQPQALNAWRDLTTSDQLRAATMLLHTVEESAFVLADNLLKTDIVRENTDNIKLEVARLSTEGNLEDLKFPENMGHGSTIQLSANTLKQNGRNGEIRVAFVLYNNLGPYLSTENASMKLGTEALSTNHSVIVNSPVITAAINKEFSNKVYLADPVVFTVKHIKQSEENFNPNCSFWSYSKRTMTGYWSTQGCRLLTTNKTHTTCSCNHLTNFAVLMAHVEVKHSDAVHDLLLDVITWVGILLSLVCLLICIFTFCFFRGLQSDRNTIHKNLCISLFVAELLFLIGINRTDQPIACAVFAALLHFFFLAAFTWMFLEGVQLYIMLVEVFESEHSRRKYFYLVGYGMPALIVAVSAAVDYRSYGTDKVCWLRLDTYFIWSFIGPATLIIMLNVIFLGIALYKMFHHTAILKPESGCLDNIKSWVIGAIALLCLLGLTWAFGLMYINESTVIMAYLFTIFNSLQGMFIFIFHCVLQKKVRKEYGKCLRTHCCSGKSTESSIGSGKTSGSRTPGRYSTGSQSRIRRMWNDTVRKQSESSFITGDINSSASLNREGLLNNARDTSVMDTLPLNGNHGNSYSIASGEYLSNCVQIIDRGYNHNETALEKKILKELTSNYIPSYLNNHERSSEQNRNLMNKLVNNLGSGREDDAIVLDDATSFNHEESLGLELIHEESDAPLLPPRVYSTENHQPHHYTRRRIPQDHSESFFPLLTNEHTEDLQSPHRDSLYTSMPTLAGVAATESVTTSTQTEPPPAKCGDAEDVYYKSMPNLGSRNHVHQLHTYYQLGRGSSDGFIVPPNKDGTPPEGSSKGPAHLVTSL
glycan array binding signal (z-score) (Kdn(a2-3)Gal(b1-4)GlcNAc): -1.49
glycan array binding signal (z-score) [1]: -0.695
glycan array binding signal (z-score) (Kdn(a2-6)Gal(b1-4)GlcNAc): 0.36
glycan array binding signal (z-score) [2]: 0.194
glycan array binding signal (z-score) [3]: 0.043
glycan array binding signal (z-score) (Man(a1-2)Man(a1-3)Man): -0.765
glycan array binding signal (z-score) [4]: -1.71
glycan array binding signal (z-score) [5]: 0.047
glycan array binding signal (z-score) [6]: 1.12
glycan array binding signal (z-score) [7]: 2.59
glycan array binding signal (z-score) [8]: 0.474
glycan array binding signal (z-score) [9]: -1.18
glycan array binding signal (z-score) (Man(a1-3)[Man(a1-6)]Man): 0.197
glycan array binding signal (z-score) [10]: -0.495
glycan array binding signal (z-score) [11]: -0.752
glycan array binding signal (z-score) [12]: -0.939
glycan array binding signal (z-score) [13]: -1.18
glycan array binding signal (z-score) [14]: -0.069
glycan array binding signal (z-score) (Man(a1-6)Man): -1.15
glycan array binding signal (z-score) (Man(b1-4)GlcNAc): -0.134
glycan array binding signal (z-score) (Neu5Ac(a2-3)Gal): -0.858
glycan array binding signal (z-score) [15]: 0.078
glycan array binding signal (z-score) [16]: 0.165
